The match of structure and compound is tentative.

Sequences of proteins named here, by UniProt entry; tags and fusion partners are left off.
UniProt Q6ZQW0, whole entry: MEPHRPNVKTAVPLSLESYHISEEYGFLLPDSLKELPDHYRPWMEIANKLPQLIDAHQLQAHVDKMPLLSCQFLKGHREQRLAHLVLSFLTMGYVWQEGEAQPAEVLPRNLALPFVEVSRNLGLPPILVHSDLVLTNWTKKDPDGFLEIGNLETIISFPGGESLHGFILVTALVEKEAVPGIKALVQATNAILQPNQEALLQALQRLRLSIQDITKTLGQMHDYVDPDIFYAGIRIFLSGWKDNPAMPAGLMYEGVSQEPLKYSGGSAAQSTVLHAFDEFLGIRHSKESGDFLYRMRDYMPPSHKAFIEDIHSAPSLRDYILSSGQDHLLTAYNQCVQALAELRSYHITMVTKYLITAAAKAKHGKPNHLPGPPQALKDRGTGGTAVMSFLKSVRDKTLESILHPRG

The assay addresses IDO2 (Homo sapiens (Human), UniProt Q6ZQW0). Put plainly: Cellular IDO2 assay, doxycycline and 5-methoxy-L-tryptophan medium, colorimetric. The format is cell-based. The settings on record: read-out: IDO2 IC50: Average IC50; cellular level, 72 h incubation, signal at 480 nm.

As to `O=C1c2cc([N+](=O)[O-])ccc2-n2c1nc1cccc(Cl)c1c2=O`, the IC50 – broadly, the concentration that inhibits the measured activity by half – was less than 50 nM.
Then `COc1ccc2nc3n(c(=O)c2c1)-c1ccc([N+](=O)[O-])cc1C3=O`, with less than 50 nM.

Values taken from US20250171452A1 (Viscient Bio, Inc., priority 2022, published 2025).
